Laboratory results published in PMC5790279, “Identification of novel leishmanicidal molecules by virtual and biochemical screenings targeting Leishmania eukaryotic translation initiation factor 4A” (PLoS Neglected Tropical Diseases, 2018).

Tests used:
[1] = tested on: L. infantum promastigotes; experiment: MTT viability assay on promastigotes; type: cell-based, Leishmania infantum; details: CC50 THP-1 / IC50 promastigotes
[2] = tested on: L. infantum intramacrophage amastigotes; experiment: Macrophage infection assay, intramacrophage amastigotes; type: cell-based, Leishmania infantum; details: CC50 THP-1 / IC50 amastigotes
Description: [86] […] [87] […] [87]
After careful washing of PMA-treated THP-1 cells (50,000 cells/well) with warm serum-free RPMI-1640 (∼ 37°C) media, 50 μl of the diluted L. infantum promastigote culture were added at the optimized MOI (10:1). Control wells of THP-1 cells without the parasites, and THP-1 cells with the parasites, were set up in each 8-well Labtek slides. The slides were incubated at 37°C, 5% CO2 overnight. After incubation, infected wells were washed at least 3 times with serum-free RPMI-1640 media to ensure complete removal of non-engulfed promastigotes, and then they were incubated in presence of different concentrations of compounds for 24 h. Control groups were incubated in supplemented RPMI medium containing 1% DMSO. Cells were then fixed and stained with RAL 555 rapid stain kit (May-Grünwald Type) (Cell Path, Newtown, UK) following the manufacturer’s instructions. The number of infected cells per 100 macrophages and the total number of parasites per 100 cells observed were determined by light microscopy under immersion oil (1000X) by counting at least 100 cells per well. Three independent experiments were conducted for each compound concentration. These values allowed us to determine the mean values and standard deviations of the percentage of infected cells and the mean amastigote number per cell. To account for the overall parasite load, an Infection Index was calculated by multiplying these two values; then, to assess the infection inhibition by the compounds, the percentage of Inhibition Parasite Index (IPI) was determined as: IPI = 100 − ((Infection Index in treated cells/Infection Index in untreated cells) * 100).
The amastigote IC50 values were calculated for all tested compounds. Selectivity index was also determined for each compound as follows: SI = CC50/IC50. Data were analyzed with Kaleidagraph (Synergy). The statistical significance of differences was determined with the Student’s t-test (* p < 0.05; ** p < 0.01).

Row | Structure (SMILES) | Promastigotes SI [1] | Amastigotes SI [2]
1 | CC(C)CCCC(C)C1CCC2C3CC(N)C4CC(O)CCC4(C)C3CCC12C (mixture of isomers) [Compound 208, 6-α/β-aminocholestanol] | 10.6 | 31.7
2 | CC(C)CCCC(C)C1CCC2C3CC(N)C4CC(O)CCC4(C)C3CCC12C (stereo not drawn) [Compound 20, 6-α-aminocholestanol] | 9.7 | 37.5
3 | CC(C)CCCC(C)C1CCC2C3CC(=O)C4CC(O)CCC4(C)C3CCC12C (stereo not drawn) [Compound 48, 6-ketocholestanol] | 2.1 | 19.3
